# Data taken from PMC8976915.
# No constants are given. Whether binding was seen depends on the method and setting. In cells and extracts the contact can be indirect. Here binding means that the protein was enriched with, or labelled near, the bait; the list need not be complete.
# B1: SRSF2 (protein, UniProt Q01130 1-221)
# chain: MSYGRPPPDVEGMTSLKVDNLTYRTSPDTLRRVFEKYGRVGDVYIPRDRYTKESRGFAFVRFHDKRDAEDAMDAMDGAVLDGRELRVQMARYGRPPDSHHSRRGPPPRRYGGGGYGRRSRSPRRRRRSRSRSRSRSRSRSRSRYSRSKSRSRTRSRSRSTSKSRSARRSKSKSSSVSRSRSRSRSRSRSRSPPPVSKRESKSRSRSKSPPKSPEEEGAVSS
# B2: eIF5b (protein, UniProt O60841 1-1220)
# chain: MGKKQKNKSEDSTKDDIDLDALAAEIEGAGAAKEQEPQKSKGKKKKEKKKQDFDEDDILKELEELSLEAQGIKADRETVAVKPTENNEEEFTSKDKKKKGQKGKKQSFDDNDSEELEDKDSKSKKTAKPKVEMYSGSDDDDDFNKLPKKAKGKAQKSNKKWDGSEEDEDNSKKIKERSRINSSGESGDESDEFLQSRKGQKKNQKNKPGPNIESGNEDDDASFKIKTVAQKKAEKKERERKKRDEEKAKLRKLKEKEELETGKKDQSKQKESQRKFEEETVKSKVTVDTGVIPASEEKAETPTAAEDDNEGDKKKKDKKKKKGEKEEKEKEKKKGPSKATVKAMQEALAKLKEEEERQKREEEERIKRLEELEAKRKEEERLEQEKRERKKQKEKERKERLKKEGKLLTKSQREARARAEATLKLLQAQGVEVPSKDSLPKKRPIYEDKKRKKIPQQLESKEVSESMELCAAVEVMEQGVPEKEETPPPVEPEEEEDTEDAGLDDWEAMASDEETEKVEGNKVHIEVKENPEEEEEEEEEEEEDEESEEEEEEEGESEGSEGDEEDEKVSDEKDSGKTLDKKPSKEMSSDSEYDSDDDRTKEERAYDKAKRRIEKRRLEHSKNVNTEKLRAPIICVLGHVDTGKTKILDKLRHTHVQDGEAGGITQQIGATNVPLEAINEQTKMIKNFDRENVRIPGMLIIDTPGHESFSNLRNRGSSLCDIAILVVDIMHGLEPQTIESINLLKSKKCPFIVALNKIDRLYDWKKSPDSDVAATLKKQKKNTKDEFEERAKAIIVEFAQQGLNAALFYENKDPRTFVSLVPTSAHTGDGMGSLIYLLVELTQTMLSKRLAHCEELRAQVMEVKALPGMGTTIDVILINGRLKEGDTIIVPGVEGPIVTQIRGLLLPPPMKELRVKNQYEKHKEVEAAQGVKILGKDLEKTLAGLPLLVAYKEDEIPVLKDELIHELKQTLNAIKLEEKGVYVQASTLGSLEALLEFLKTSEVPYAGINIGPVHKKDVMKASVMLEHDPQYAVILAFDVRIERDAQEMADSLGVRIFSAEIIYHLFDAFTKYRQDYKKQKQEEFKHIAVFPCKIKILPQYIFNSRDPIVMGVTVEAGQVKQGTPMCVPSKNFVDIGIVTSIEINHKQVDVAKKGQEVCVKIEPIPGESPKMFGRHFEATDILVSKISRQSIDALKDWFRDEMQKSDWQLIVELKKVFEII
# B3: SRSF7 (protein, UniProt Q16629 1-238)
# chain: MSRYGRYGGETKVYVGNLGTGAGKGELERAFSYYGPLRTVWIARNPPGFAFVEFEDPRDAEDAVRGLDGKVICGSRVRVELSTGMPRRSRFDRPPARRPFDPNDRCYECGEKGHYAYDCHRYSRRRRSRSRSRSHSRSRGRRYSRSRSRSRGRRSRSASPRRSRSISLRRSRSASLRRSRSGSIKGSRYFQSPSRSRSRSRSISRPRSSRSKSRSPSPKRSRSPSGSPRRSASPERMD
# B4: G3BP2 (protein, UniProt Q9UN86 1-482)
# chain: MVMEKPSPLLVGREFVRQYYTLLNKAPEYLHRFYGRNSSYVHGGVDASGKPQEAVYGQNDIHHKVLSLNFSECHTKIRHVDAHATLSDGVVVQVMGLLSNSGQPERKFMQTFVLAPEGSVPNKFYVHNDMFRYEDEVFGDSEPELDEESEDEVEEEQEERQPSPEPVQENANSGYYEAHPVTNGIEEPLEESSHEPEPEPESETKTEELKPQVEEKNLEELEEKSTTPPPAEPVSLPQEPPKAFSWASVTSKNLPPSGTVSSSGIPPHVKAPVSQPRVEAKPEVQSQPPRVREQRPRERPGFPPRGPRPGRGDMEQNDSDNRRIIRYPDSHQLFVGNLPHDIDENELKEFFMSFGNVVELRINTKGVGGKLPNFGFVVFDDSEPVQRILIAKPIMFRGEVRLNVEEKKTRAARERETRGGGDDRRDIRRNDRGPGGPRGIVGGGMMRDRDGRGPPPRGGMAQKLGSGRGTGQMEGRFTGQRR
# B5: DDX1 (protein, UniProt Q92499 1-740)
# chain: MAAFSEMGVMPEIAQAVEEMDWLLPTDIQAESIPLILGGGDVLMAAETGSGKTGAFSIPVIQIVYETLKDQQEGKKGKTTIKTGASVLNKWQMNPYDRGSAFAIGSDGLCCQSREVKEWHGCRATKGLMKGKHYYEVSCHDQGLCRVGWSTMQASLDLGTDKFGFGFGGTGKKSHNKQFDNYGEEFTMHDTIGCYLDIDKGHVKFSKNGKDLGLAFEIPPHMKNQALFPACVLKNAELKFNFGEEEFKFPPKDGFVALSKAPDGYIVKSQHSGNAQVTQTKFLPNAPKALIVEPSRELAEQTLNNIKQFKKYIDNPKLRELLIIGGVAARDQLSVLENGVDIVVGTPGRLDDLVSTGKLNLSQVRFLVLDEADGLLSQGYSDFINRMHNQIPQVTSDGKRLQVIVCSATLHSFDVKKLSEKIMHFPTWVDLKGEDSVPDTVHHVVVPVNPKTDRLWERLGKSHIRTDDVHAKDNTRPGANSPEMWSEAIKILKGEYAVRAIKEHKMDQAIIFCRTKIDCDNLEQYFIQQGGGPDKKGHQFSCVCLHGDRKPHERKQNLERFKKGDVRFLICTDVAARGIDIHGVPYVINVTLPDEKQNYVHRIGRVGRAERMGLAISLVATEKEKVWYHVCSSRGKGCYNTRLKEDGGCTIWYNEMQLLSEIEEHLNCTISQVEPDIKVPVDEFDGKVTYGQKRAAGGGSYKGHVDILAPTVQELAALEKEAQTSFLHLGYLPNQLFRTF
# Target: GFP-G3BP1 (Ras-GTPase activating SH3 domain-binding protein 1) (UniProt Q13283)
# Experiment: affinity purification with mass spectrometry; U2OS GFP-G3BP1 cells treated with VFS for 1 h; granule-enriched fraction made by sequential centrifugation; IP with anti-GFP antibody (control IgG) and Protein A Dynabeads at 4°C; washes with SG lysis buffer + 2 M urea, + 300 mM potassium acetate, then TE; LC-MS/MS, MaxQuant; hits at ≥1 log2-fold over control IgG
row,binding,Binder
1,binds,B1
2,binds,B2
3,binds,B3
4,binds,B4
5,binds,B5
